The target in this test is T1, Phaeodactylum tricornutum fucosyltransferase 1 (PtFucT1) (Phaeodactylum tricornutum) (UniProt B7G1M4).
T1 sequence: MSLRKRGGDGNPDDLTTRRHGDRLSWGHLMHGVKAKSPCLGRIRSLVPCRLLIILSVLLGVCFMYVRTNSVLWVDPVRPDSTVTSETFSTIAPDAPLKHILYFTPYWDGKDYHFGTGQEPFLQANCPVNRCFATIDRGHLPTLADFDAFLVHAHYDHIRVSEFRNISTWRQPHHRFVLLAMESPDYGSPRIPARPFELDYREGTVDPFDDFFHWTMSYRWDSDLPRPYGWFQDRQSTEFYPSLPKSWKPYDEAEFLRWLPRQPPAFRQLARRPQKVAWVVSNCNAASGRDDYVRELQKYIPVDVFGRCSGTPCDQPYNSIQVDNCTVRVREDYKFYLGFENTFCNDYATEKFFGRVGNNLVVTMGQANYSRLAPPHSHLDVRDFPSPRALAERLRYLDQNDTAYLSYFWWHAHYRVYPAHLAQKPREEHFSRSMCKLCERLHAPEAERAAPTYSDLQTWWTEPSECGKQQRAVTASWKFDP
As to the kind of experiment: two-hybrid; split-ubiquitin type yeast two-hybrid in strain NMY51; bait pBT3-N-PtFucT1, prey pPR3-N-PtGnTI; growth on DDO (SD/-Leu/-Trp), TDO (SD/-Leu/-Trp/-His) and QDO (SD/-Leu/-Trp/-His/-Ade) media.

Results are given in words; binding and its absence hold for the method and conditions named. Binding calls can cover weak binding; strength is not graded here.

For the substance “Phaeodactylum tricornutum N-acetylglucosaminyltransferase I (PtGnTI) (enzyme)”, the binding result is on record as “binds”.

These data come from PMC9826595.
